Results taken from PubChem BioAssay AID2685 (National Center for Advancing Translational Sciences (NCATS), 2010).
Some of the results follow. Shown are side measurements of this screen, not its main read-out; they come without a call. Most of these compounds were active or inconclusive in the main read-out, so they are no random draw. Potencies come from curve fits of mixed quality, noted in brackets.

Experiment: qHTS Assay for Lipid Storage Modulators in Drosophila S3 Cells;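 on cell number change: cells counted by Cell Tracker Red CMTPX staining in the red channel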
Details: BODIPY lipid droplet fluorescence, 18-24 h; for cell number change: measured here: cell count max response, cells fed with added oleic acid
Method in brief: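 Drosophila S3 cells loaded with oleic acid (400 uM, as added) and compounds at several concentrations; lipid droplets imaged by 488-nm laser-scanning cytometry, 500–530 nm intensity and object ratio to cell channel. Percent activity normalized to 20 uM Triacsin C.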

[1] = measured here: lipid fluorescence (Fed channel) AC50, cells fed with added oleic acid
[2] = measured here: cell number channel AC50, cells fed with added oleic acid

Row | Compound | cell number change [%] | AC50 [1] | AC50 [2]
1 | CCOc1ccc(C)cc1S(=O)(=O)NC1CCCCCC1 | 26.9 | 1.26 µM [rising, full curve] | 
2 | CCN(CC)c1ccc(/C=N/NC(=O)c2nnn(-c3nonc3N)c2-c2ccc(C)cc2)cc1 | -0.295 | 0.58 µM [rising, full curve] | 
3 | C/C(=N\NC(=O)c1cccc([N+](=O)[O-])c1)c1ccco1 | 1.05 | 18.4 µM [rising, single point] | 
4 | COc1ccc(-n2c(Cc3cccn3C)nnc2SCC(=O)Nc2cccc(OC)c2)cc1 | 3.27 | 7.31 µM [rising, partial curve] | 
5 | Cc1ccc(C(=O)Nc2ccc(N3CCN(C(=O)c4ccco4)CC3)cc2)c(Cl)c1 | -9.21 | 3.55 µM [rising, single point] | 
6 | CC(C)(C)c1ccc(C(=O)Nc2cnccn2)cc1 | 5.78 |  | 
7 | C#CCOc1ccc2ccccc2c1/C=C(/C#N)c1ccc(C(=O)O)cc1 | 13.8 | 1.64 µM [falling, single point] | 
8 | Cc1cc(C)c(NC(=O)C(C)(C)C)c(Cl)c1 | -30 | 29.1 µM [falling, single point] | 11.6 µM [falling, single point]
9 | Cn1c(SCC(=O)Nc2cccnc2)nnc1-c1ccccc1F |  |  | 6.51 µM [falling, single point]
10 | CCN1CCN=C1Nc1ccccc1 | -36.7 | 29.1 µM [falling, single point] | 20.6 µM [falling, single point]
11 | Cc1cccc(C(=O)OC(C)C(=O)NC(=O)NC2CCCCC2)c1O (stereo not drawn) | -24.3 |  | 
12 | Cc1ccc(C)c(Nc2cc(C)nc3ncnn23)c1 | 1.47 |  | 
13 | CCOC(=O)c1cnc2c(C#N)c(C)nn2c1-c1ccccc1 | -6.67 | 20.6 µM [rising, single point] | 
14 | CCOC(=O)C1C(c2ccccc2)N(C)OC1(O)C(F)(F)F (stereo not drawn) | -5.93 |  | 
15 | CC(=O)Nc1cc(N=Cc2ccc(O)cc2O)c(Cl)cc1Cl | -12.4 | 29.1 µM [rising, single point] | 
16 | CC(Oc1ccc(Cl)cc1Cl)c1nc(-c2ccc(NC(=O)c3ccco3)cc2)no1 (stereo not drawn) |  |  | 2.06 µM [rising, partial curve]
17 | Cc1c(C(=O)NCc2ccc3c(c2)OCO3)sc2nc(-c3ccc(F)cc3)cn12 | 42 | 0.13 µM [rising, full curve, poor fit] | 0.13 µM [rising, full curve, poor fit]
18 | CCn1cc(/C=N/NC(=O)COc2cccc3cccnc23)c2ccccc21 | -65.3 | 2.31 µM [rising, partial curve, poor fit] | 32.6 µM [falling, single point]
19 | CC(=O)n1cc([C@H]2C=C(C(=O)N3CCN(Cc4ccccc4)CC3)O[C@@H](OCc3ccc(CO)cc3)C2)c2ccccc21 | -20.9 |  | 

Row | Compound | cell number change [%] | AC50 [1] | AC50 [2]
20 | COc1cccc(C(=O)NCC(c2ccc3c(c2)OCO3)N2CCN(c3ccc(F)cc3)CC2)c1 (stereo not drawn) |  | 0.13 µM [rising, full curve, poor fit] | 0.13 µM [rising, full curve, poor fit]
21 | Fc1ccccc1C1c2cccn2CCN1C(=S)Nc1ccc(Br)cc1 (stereo not drawn) | 39.3 | 29.1 µM [rising, single point] | 0.13 µM [rising, full curve]
22 | Cc1c(C(=O)NCc2cccs2)oc2ccc(S(=O)(=O)N3CCOCC3)cc12 | 36.4 | 0.651 µM [rising, full curve, poor fit] | 13 µM [rising, partial curve]
23 | CCOC(=O)c1cnc(Nc2ccc(OCC)cc2)nc1C | 4.38 |  | 
24 | O=C(NCCc1ccccc1)C1CCCN1S(=O)(=O)c1cccc2nsnc12 (stereo not drawn) | -10.8 |  | 
25 | O=C(CS(=O)(=O)c1cn(CC(=O)N2CCOCC2)c2ccccc12)NCc1ccc(F)cc1 | -17.3 | 4.47 µM [falling, full curve, poor fit] | 
26 | CN(CC(=O)Nc1ccc(F)cc1)C(=O)c1ccc(OCc2ccccc2)cc1 | 194 |  | 18.4 µM [rising, single point]
27 | O=C(Nc1ccc(C(=O)N2CCOCC2)cc1)Nc1ccc(Cl)cc1Cl | -17.3 |  | 5.8 µM [falling, single point]
28 | COc1ccccc1NC(=O)N1CCCC1C(=O)Nc1nnc(C(C)C)s1 (stereo not drawn) | -21.4 | 6.51 µM [falling, single point] | 0.517 µM [falling, full curve, poor fit]
29 | Cc1ccc(C(=O)Oc2oc(-c3ccco3)nc2C=Nc2ccc(Cl)cc2)cc1 | 17.9 | 18.4 µM [rising, single point] | 
30 | OC(COCc1cccs1)CN1CCN(c2cccc(Cl)c2)CC1 (stereo not drawn) | -36.5 |  | 29.1 µM [falling, single point]
31 | O=C(O)c1ccccc1C(=O)Nc1ccc(S(=O)(=O)Nc2ccc(F)cc2)cc1 |  | 29.1 µM [rising, single point] | 
32 | O=C(c1ccc(Cl)c(S(=O)(=O)N2CCOCC2)c1)N1CCCC1 | -1.32 | 7.08 µM [rising, partial curve, poor fit] | 
33 | COc1cc(NC(=O)CSc2ncnc3sc4c(c23)CCCC4)c(C(=O)O)cc1OC | -5.65 | 6.51 µM [rising, single point] | 
34 | O=C(NCc1ccco1)C1CCCCC1 | 5.97 | 0.0058 µM [falling, full curve, poor fit] | 6.51 µM [falling, partial curve, poor fit]
35 | Cc1cc(C(=O)Nc2ccc(C)c(S(=O)(=O)N3CCOCC3)c2)c2ccccc2n1 | -7.65 |  | 
36 | CC(OC(=O)CC1CCCC1)C(=O)Nc1ccc(Cl)cn1 (stereo not drawn) | -22.9 | 0.731 µM [falling, partial curve] | 
37 | C/C(=N/OC(=O)c1c(-c2c(Cl)cccc2Cl)noc1C)c1cnccn1 | 10.9 | 0.13 µM [rising, full curve, poor fit] | 
38 | CCOC(=O)N1CCC(=C(C#N)C(=O)Nc2cc(OC)ccc2OC)CC1 | -15.8 | 0.146 µM [falling, full curve, poor fit] | 

Fetched by structure from above:
Row | Compound | cell number change [%] | AC50 [1] | AC50 [2]
27 | O=C(Nc1ccc(C(=O)N2CCOCC2)cc1)Nc1ccc(Cl)cc1Cl | -17.3 |  | 5.8 µM [falling, single point]
37 | C/C(=N/OC(=O)c1c(-c2c(Cl)cccc2Cl)noc1C)c1cnccn1 | 10.9 | 0.13 µM [rising, full curve, poor fit] | 
